Source: publication PMC2669294, “The Spliceosomal Phosphopeptide P140 Controls the Lupus Disease by Interacting with the HSC70 Protein and via a Mechanism Mediated by γδ T Cells” (PLoS ONE, 2009)
No constants are given. Whether binding was seen depends on the method and setting.

Target: T1, recombinant bovine HSC70 (bovine, UniProt P19120 1-650)
T1 construct: heat-shock cognate HSC70 protein, bovine, recombinant (Stressgen); Immobilised through one of its four thiol groups in the SPR experiment; no tag is named; also called recombinant HSC70 protein; source: bought: Stressgen (recombinant)
Experiment: SPR; BIAcore 3000; recombinant bovine HSC70 immobilised on CM5 chip through its thiol groups (13,000 RU); peptides injected (1.56 to 12.5 µM) 3 min, dissociation 3 min; 25°C, 20 µL/min; HBS-EP pH 7.4; 1:1 Langmuir model; both purified

Binder: YVSRYFGSAIRHEPKMKIYRG (phosphoserine at position 8 of the peptide (pS in the printed letters)) [scrambled peptide P140 (ScP140)]
- binding: no binding
